The supplement of paper PMC10727501
The list shows a part of the results. Single values are uncertain here, since repeats match poorly.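 Free-swimming zebrafish larvae were assessed for O-bend response probability to dark flashes (naive: first five; training: remaining flashes across four 60-flash blocks; test: later 60-flash block) and for OMR turning toward alternating leftward/rightward LED motion. Six treated larvae were compared against sixty 0.1% DMSO controls; hits required |SSMD|≥2.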

System: Danio rerio larvae (5 dpf, TLF)
Test: Prob-Train (SSMD vs DMSO vehicle); higher = higher than vehicle (e.g. higher dark-flash O-bend response probability, or better optomotor performance)
Settings: 10 µM; pre-incubation: 30-90 min

**Q.** `CN(C)CCOc1ccc(-c2nc(-c3ccncc3)c(-c3ccc4c(c3)CC/C4=N/O)[nH]2)cc1` was tested. Which Prob-Train did it give?
**A.** The Prob-Train was -0.0136.

**Q.** How did the Prob-Train turn out when `CC(=O)OCC(CCn1cnc2cnc(N)nc21)COC(C)=O` [Famciclovir] was run?
**A.** The Prob-Train was 0.372.

**Q.** For `CCc1cncnc1N1CCN(Cc2nc3cc(C(F)(F)F)ccc3[nH]2)CC1`, which Prob-Train is on record?
**A.** Its Prob-Train is -0.0967.

**Q.** For `CO[C@H]1/C=C/O[C@@]2(C)Oc3c(C)c(O)c4c(O)c(c(/C=N/N5CCN(C)CC5)c(O)c4c3C2=O)NC(=O)/C(C)=C/C=C/[C@H](C)[C@H](O)[C@@H](C)[C@@H](O)[C@@H](C)[C@H](OC(C)=O)[C@@H]1C` [Rifampin], which Prob-Train is on record?
**A.** Its Prob-Train is 0.377.

**Q.** For `CC(C)c1ccc(NC(=O)Cn2cnc3c2c(=O)n(C)c(=O)n3C)cc1`, which Prob-Train is on record?
**A.** Its Prob-Train is 0.516.

**Q.** `CCS(=O)(=O)Nc1ccc2c(c1)/C(=C(/Nc1ccc(CN3CCCCC3)cc1)c1ccccc1)C(=O)N2` [Hesperadin] was tested. Which Prob-Train did it give?
**A.** The Prob-Train was 0.667.

**Q.** With `Cc1ccccc1C(=O)Nc1ccc(C(=O)N2CCCC(N(C)C)c3ccccc32)cc1` (stereo unspecified) [Mozavaptan] as the compound, how does the Prob-Train read?
**A.** Its Prob-Train is -0.279.

**Q.** With `CC(C)C[C@H](NC(=O)[C@H](CCc1ccccc1)NC(=O)CN1CCOCC1)C(=O)N[C@@H](Cc1ccccc1)C(=O)N[C@@H](CC(C)C)C(=O)[C@@]1(C)CO1` [Carfilzomib (PR-171)] as the compound, how does the Prob-Train read?
**A.** The Prob-Train was 0.422.

**Q.** `O=c1[nH]c(=O)n([C@H]2C[C@H](O)[C@@H](CO)O2)cc1C(F)(F)F` [Trifluridine] was tested. Which Prob-Train did it give?
**A.** Its Prob-Train is 0.488.

**Q.** For `COc1ccc([C@H]2CNC(=O)C2)cc1OC1CCCC1` [S- (+)-Rolipram], which Prob-Train is on record?
**A.** The Prob-Train was -0.637.

**Q.** `CCCCCCCCCCOc1cc2c(O)c(C(=O)OCC)cnc2cc1OCC` [Decoquinate] was tested. Which Prob-Train did it give?
**A.** The Prob-Train was 0.921.

**Q.** With `O=C(/C=C/c1ccc(O)c(O)c1)O[C@@H]1C[C@@](O)(C(=O)O)C[C@@H](O)[C@H]1O` [Chlorogenic Acid] as the compound, how does the Prob-Train read?
**A.** Its Prob-Train is -0.347.

**Q.** With `Cc1cc(C)nc(NS(=O)(=O)c2ccc(N)cc2)n1` [Sulfamethazine] as the compound, how does the Prob-Train read?
**A.** The Prob-Train was 0.946.

**Q.** With `O=C(O)c1cc2cccc([N+](=O)[O-])c2[nH]1` as the compound, how does the Prob-Train read?
**A.** The Prob-Train was 0.0945.

**Q.** With `Cc1cccc(-c2[nH]c(C(C)(C)C)nc2-c2ccc3c(c2)OCO3)n1` as the compound, how does the Prob-Train read?
**A.** Its Prob-Train is -0.54.

**Q.** With `CCN(CCO)CCCOc1ccc2c(Nc3cc(CC(=O)Nc4cccc(F)c4)n[nH]3)ncnc2c1` [Barasertib (AZD1152-HQPA)] as the compound, how does the Prob-Train read?
**A.** Its Prob-Train is -0.345.

**Q.** Which Prob-Train does the source give for `CCOC(=O)C1=C[C@@]2(CC)CCCN3CCc4c(n1c1ccccc41)[C@@H]32` [Vinpocetine (Cavinton)] here?
**A.** The Prob-Train was -1.36.

**Q.** How did the Prob-Train turn out when `COc1c2ccoc2cc2oc(=O)ccc12` [Bergapten] was run?
**A.** The Prob-Train was -0.207.

**Q.** `NCCCC(O)(P(=O)(O)O)P(=O)(O)O.O.O.O.[Na]` [Alendronate (Fosamax)] was tested. Which Prob-Train did it give?
**A.** The Prob-Train was 0.241.

**Q.** How did the Prob-Train turn out when `COc1ccc2ccc(=O)oc2c1CC=C(C)C` [Osthole] was run?
**A.** The Prob-Train was -1.5.

**Q.** `CCN[C@@H]1C[C@@H](N)[C@@H](O[C@H]2OC(CN)=CC[C@@H]2N)[C@H](O)[C@H]1OC1OC[C@](C)(O)[C@H](NC)[C@@H]1O.CCN[C@@H]1C[C@@H](N)[C@@H](O[C@H]2OC(CN)=CC[C@@H]2N)[C@H](O)[C@H]1OC1OC[C@](C)(O)[C@H](NC)[C@@H]1O.O=S(=O)(O)O.O=S(=O)(O)O.O=S(=O)(O)O.O=S(=O)(O)O.O=S(=O)(O)O` (stereo partly specified) [Netilmicin Sulfate] was tested. Which Prob-Train did it give?
**A.** The Prob-Train was -0.209.

**Q.** How did the Prob-Train turn out when `CC(C)c1cc(C(C)C)c(CC(=O)NS(=O)(=O)Oc2c(C(C)C)cccc2C(C)C)c(C(C)C)c1` [Avasimibe] was run?
**A.** Its Prob-Train is -0.501.

**Q.** How did the Prob-Train turn out when `COC(=O)[C@H]1[C@H]2C[C@@H]3c4[nH]c5cc(OC)ccc5c4CCN3C[C@H]2C[C@@H](OC(=O)c2cc(OC)c(OC)c(OC)c2)[C@@H]1OC` [Reserpine] was run?
**A.** The Prob-Train was -1.02.

**Q.** Which Prob-Train does the source give for `CN1CCC[C@@H]1CCO[C@](C)(c1ccccc1)c1ccc(Cl)cc1.O=C(O)/C=C/C(=O)O` [Clemastine Fumarate] here?
**A.** The Prob-Train was 0.0846.

**Q.** How did the Prob-Train turn out when `CCN(CC)CCCC(C)Nc1c2ccc(Cl)cc2nc2ccc(OC)cc12.Cl.Cl` (stereo unspecified) [Quinacrine 2HCl] was run?
**A.** The Prob-Train was -1.27.

**Q.** How did the Prob-Train turn out when `CC[C@H](NC(=O)[C@H](C)NC)C(=O)N1C[C@@H](O)C[C@H]1Cc1c(-c2[nH]c3cc(F)ccc3c2C[C@@H]2C[C@H](O)CN2C(=O)[C@H](CC)NC(=O)[C@H](C)NC)[nH]c2cc(F)ccc12` [Birinapant] was run?
**A.** The Prob-Train was -0.137.
